Results are given in words; binding and its absence hold for the method and conditions named. Binding seen in cells or lysates may run through a third protein. Some binding calls cover weakened binding; strength is not graded here. Where a sequence is shown, tags or fusion partners need not be part of it.
What follows are substances tested against T1, HA-tagged Sec18 (pYK175, 3×Flag N-terminal tag, HA C-terminal tag) (S. cerevisiae) (UniProt P18759) (assay: cross-linking; in vivo XL-MS: spheroplasts of S. cerevisiae S288C expressing tagged Sec18 treated with DSG (5 mM) for 30 min, lysis, magnetic bead anti-HA co-IP, SDS-PAGE bands of crosslinked Sec18 excised, LC-MS/MS; crosslinks graded high, medium or low confidence).
T1 sequence: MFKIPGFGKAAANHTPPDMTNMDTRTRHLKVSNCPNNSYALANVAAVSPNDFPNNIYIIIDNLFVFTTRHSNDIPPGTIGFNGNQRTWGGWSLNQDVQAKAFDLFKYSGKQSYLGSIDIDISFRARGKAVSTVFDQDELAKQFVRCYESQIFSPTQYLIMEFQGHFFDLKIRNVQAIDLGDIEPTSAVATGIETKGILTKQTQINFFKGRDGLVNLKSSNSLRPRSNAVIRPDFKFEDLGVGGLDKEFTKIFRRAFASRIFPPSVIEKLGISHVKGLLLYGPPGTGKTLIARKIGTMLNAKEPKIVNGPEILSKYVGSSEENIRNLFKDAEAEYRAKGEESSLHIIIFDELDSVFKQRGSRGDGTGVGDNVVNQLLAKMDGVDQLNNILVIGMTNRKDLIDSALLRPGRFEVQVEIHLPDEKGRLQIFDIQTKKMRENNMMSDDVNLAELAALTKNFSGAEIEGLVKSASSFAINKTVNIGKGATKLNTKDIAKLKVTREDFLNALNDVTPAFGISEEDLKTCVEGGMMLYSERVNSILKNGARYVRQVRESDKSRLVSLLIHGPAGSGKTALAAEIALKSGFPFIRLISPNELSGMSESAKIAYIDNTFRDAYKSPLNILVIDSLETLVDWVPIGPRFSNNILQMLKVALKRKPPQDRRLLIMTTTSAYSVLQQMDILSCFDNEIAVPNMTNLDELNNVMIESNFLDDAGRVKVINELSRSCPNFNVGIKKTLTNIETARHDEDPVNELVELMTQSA

Amino acid sequences for entries named in this document (tags omitted).
UniProt Q08144: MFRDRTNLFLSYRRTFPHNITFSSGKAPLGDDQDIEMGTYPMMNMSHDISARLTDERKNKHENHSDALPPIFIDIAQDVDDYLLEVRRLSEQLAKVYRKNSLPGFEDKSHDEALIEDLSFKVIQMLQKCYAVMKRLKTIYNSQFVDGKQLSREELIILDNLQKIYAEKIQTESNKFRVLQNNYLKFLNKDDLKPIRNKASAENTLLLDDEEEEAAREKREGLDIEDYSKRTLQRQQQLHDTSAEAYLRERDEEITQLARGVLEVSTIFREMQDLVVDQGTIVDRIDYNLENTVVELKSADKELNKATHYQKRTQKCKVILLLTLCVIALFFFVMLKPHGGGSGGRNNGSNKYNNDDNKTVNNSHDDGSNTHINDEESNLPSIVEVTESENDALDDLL
UniProt P33328: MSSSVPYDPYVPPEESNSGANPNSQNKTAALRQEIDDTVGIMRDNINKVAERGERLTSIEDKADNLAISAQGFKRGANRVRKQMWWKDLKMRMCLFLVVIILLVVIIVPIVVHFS
UniProt P32867: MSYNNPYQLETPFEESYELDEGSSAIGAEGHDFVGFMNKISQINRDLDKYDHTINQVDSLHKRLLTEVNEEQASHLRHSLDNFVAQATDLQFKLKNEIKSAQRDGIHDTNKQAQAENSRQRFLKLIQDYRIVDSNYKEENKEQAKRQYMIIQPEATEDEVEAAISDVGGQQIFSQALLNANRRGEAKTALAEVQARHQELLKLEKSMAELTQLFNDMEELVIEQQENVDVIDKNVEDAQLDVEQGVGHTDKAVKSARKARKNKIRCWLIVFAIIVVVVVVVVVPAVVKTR
UniProt P40357: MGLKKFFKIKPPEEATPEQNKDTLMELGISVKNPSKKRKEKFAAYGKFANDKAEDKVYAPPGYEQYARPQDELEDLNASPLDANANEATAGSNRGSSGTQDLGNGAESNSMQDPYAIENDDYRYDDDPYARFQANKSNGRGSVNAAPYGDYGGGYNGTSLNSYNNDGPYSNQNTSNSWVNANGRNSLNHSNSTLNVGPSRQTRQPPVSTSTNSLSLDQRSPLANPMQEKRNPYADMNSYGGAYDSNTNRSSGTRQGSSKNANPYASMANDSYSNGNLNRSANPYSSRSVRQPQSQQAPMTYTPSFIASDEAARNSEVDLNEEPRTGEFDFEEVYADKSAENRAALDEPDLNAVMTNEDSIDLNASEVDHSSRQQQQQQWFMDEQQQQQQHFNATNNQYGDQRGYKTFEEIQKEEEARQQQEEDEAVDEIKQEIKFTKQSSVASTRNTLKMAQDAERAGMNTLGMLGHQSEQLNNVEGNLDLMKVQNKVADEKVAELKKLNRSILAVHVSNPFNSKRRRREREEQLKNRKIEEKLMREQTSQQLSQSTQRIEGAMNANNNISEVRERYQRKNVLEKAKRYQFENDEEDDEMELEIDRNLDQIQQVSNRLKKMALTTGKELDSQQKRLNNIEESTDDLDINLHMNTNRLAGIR

binding, binds:
TLG2 (endogenous) (from UniProt Q08144 1-397), Snc2 (endogenous) (from UniProt P33328 1-115), Sso1 (endogenous) (from UniProt P32867 1-290), Sec9 (endogenous) (from UniProt P40357 1-651)

— publication PMC12440825
